Among the data in the supplement of paper PMC10735217 are TEAD-luciferase reporter activity values, retold here.

Each structure is given as a SMILES string. The list shows a part of the results. This data set is noisy: repeats of one test often differ as much as different tests do.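 Human kidney-derived cells stably carry a construct in which eight TEAD-binding elements drive luciferase, measured by luminescence in a drug-repurposing library screen. A hit is any compound whose signal exceeds the plate mean by more than five robust Z scores.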

The test relates to HEK293A TEAD-LUC reporter. Put plainly: TEAD-luciferase reporter activity (YAP activation), robust Z score vs plate; higher = stronger YAP/TEAD activation. Conditions: 24 h. (In a reporter assay the amount or activity of a reporter protein is the signal.)

`CCCCOCCOC(=O)c1cccnc1`: the TEAD-luciferase reporter activity by setting is: (compound concentration: 200 nM) inactive: -2.08; (compound concentration: 2 uM) inactive: -0.857; (compound concentration: 10 uM) inactive: -0.395.
Turning to `CCCC(=O)O` [Sodium n-butyrate], the TEAD-luciferase reporter activity is inactive: -1.18 (compound concentration: 200 nM) and inactive: -1.04 (compound concentration: 10 uM).
As to `CCCC(=O)O` [Sodium butyrate], the TEAD-luciferase reporter activity (compound concentration: 2 uM) is inactive: -0.969.
As for `CC[C@@]1(O)C(=O)OCc2c1cc1n(c2=O)Cc2c-1nc1ccccc1c2CC[Si](C)(C)C` [Cositecan], the TEAD-luciferase reporter activity was inactive: -1.82 (compound concentration: 200 nM) and inactive: -1.62 (compound concentration: 10 uM).
`CCCCCCCCC/C(=C\C1=C(C)C(=O)C(OC)=C(OC)C1=O)C(=O)O`: the TEAD-luciferase reporter activity runs as follows: (compound concentration: 200 nM) inactive: -1.42; (compound concentration: 2 uM) inactive: 0.774; (compound concentration: 10 uM) inactive: 0.675.
Regarding `O=C(O)CCc1c[nH]c2ccccc12` [indole-3-propionic acid], the TEAD-luciferase reporter activity (compound concentration: 2 uM) was inactive: -1.15.
As to `O=C(O)CCc1c[nH]c2ccccc12` [indole-3-propionic acid, Intellect Neurosciences], the TEAD-luciferase reporter activity (compound concentration: 200 nM) was inactive: 2.08 and the TEAD-luciferase reporter activity (compound concentration: 10 uM) is inactive: -1.93.
Turning to `O=C(Nc1ccc(Cl)cc1)Nc1ccc(Cl)c(C(F)(F)F)c1`, the TEAD-luciferase reporter activity reads like this: (compound concentration: 200 nM) inactive: -1.51; (compound concentration: 2 uM) inactive: -1.19; (compound concentration: 10 uM) inactive: 0.229.
On to `Cn1cnc([N+](=O)[O-])c1C[N+](C)(C)CC=CC(=O)Nc1cc2c(Nc3ccc(Cl)c(Br)c3)ncnc2cn1` [Tarloxotinib Bromide], for which the TEAD-luciferase reporter activity is inactive: -1.08 (compound concentration: 200 nM), inactive: -1.19 (compound concentration: 2 uM) and inactive: -1.34 (compound concentration: 10 uM).
Take `CCCCc1nc2cc(/C=C/C(=O)NO)ccc2n1CCN(CC)CC` [Pracinostat (SB939)]: the TEAD-luciferase reporter activity runs as follows: (compound concentration: 200 nM) active: 35.8; (compound concentration: 10 uM) active: 35.
For `CCCCc1nc2cc(/C=C/C(=O)NO)ccc2n1CCN(CC)CC` [pracinostat], the TEAD-luciferase reporter activity (compound concentration: 2 uM) is active: 23.8.
With `CNC(=O)[C@H](Cc1ccccc1)NC(=O)[C@@H](CC(C)C)S[C@@H]1CN(C(=O)NCCN2C(=O)c3ccccc3C2=O)C[C@@H]1S`, the TEAD-luciferase reporter activity is, setting by setting: (compound concentration: 200 nM) inactive: -0.453; (compound concentration: 2 uM) inactive: -1.23; (compound concentration: 10 uM) inactive: -0.304.
Consider `O=C(CCCN1CC2CCC(CC2)C1)c1ccc(F)cc1` [nonaperone], for which the TEAD-luciferase reporter activity is, setting by setting: (compound concentration: 200 nM) inactive: 3.53; (compound concentration: 2 uM) inactive: 3.96; (compound concentration: 10 uM) inactive: -0.0342.
Taken in the same sequence, the figures for `CCCCc1nc(C)n(Cc2sccc2C(=O)OC)c(=O)c1Cc1ccc(-c2ccccc2-c2nnn[nH]2)cc1` [Milfasartan] were inactive: -0.599, inactive: 0.188 and inactive: -1.9.
Regarding `Cc1cc2ncc(C(=O)N3CCC(N4CCCC4)CC3)cn2n1`, the TEAD-luciferase reporter activity (compound concentration: 200 nM) was inactive: 3.17 and the TEAD-luciferase reporter activity (compound concentration: 10 uM) was inactive: 1.06.
In the case of `NCc1ccc(S(N)(=O)=O)cc1` [mafenide acetate], for the setting “compound concentration: 2 uM”, the TEAD-luciferase reporter activity was inactive: 0.0641.
As for `NCc1ccc(S(N)(=O)=O)cc1`, the TEAD-luciferase reporter activity is, setting by setting: (compound concentration: 200 nM) inactive: -1.64; (compound concentration: 10 uM) inactive: -0.87.
`O=C(O)Cn1c(=O)c(=O)[nH]c2cc([N+](=O)[O-])c(-n3ccnc3)cc21`: the TEAD-luciferase reporter activity is inactive: -1.16 (compound concentration: 200 nM), inactive: -0.966 (compound concentration: 2 uM) and inactive: -0.703 (compound concentration: 10 uM).
